In experiment [1] the target is T1, HA-CFP-tagged human NKCC1 (pcDNA3.1-HA-CFP-hNKCC1 WT (NT15-H)) (human) (UniProt P55011).
T1 sequence: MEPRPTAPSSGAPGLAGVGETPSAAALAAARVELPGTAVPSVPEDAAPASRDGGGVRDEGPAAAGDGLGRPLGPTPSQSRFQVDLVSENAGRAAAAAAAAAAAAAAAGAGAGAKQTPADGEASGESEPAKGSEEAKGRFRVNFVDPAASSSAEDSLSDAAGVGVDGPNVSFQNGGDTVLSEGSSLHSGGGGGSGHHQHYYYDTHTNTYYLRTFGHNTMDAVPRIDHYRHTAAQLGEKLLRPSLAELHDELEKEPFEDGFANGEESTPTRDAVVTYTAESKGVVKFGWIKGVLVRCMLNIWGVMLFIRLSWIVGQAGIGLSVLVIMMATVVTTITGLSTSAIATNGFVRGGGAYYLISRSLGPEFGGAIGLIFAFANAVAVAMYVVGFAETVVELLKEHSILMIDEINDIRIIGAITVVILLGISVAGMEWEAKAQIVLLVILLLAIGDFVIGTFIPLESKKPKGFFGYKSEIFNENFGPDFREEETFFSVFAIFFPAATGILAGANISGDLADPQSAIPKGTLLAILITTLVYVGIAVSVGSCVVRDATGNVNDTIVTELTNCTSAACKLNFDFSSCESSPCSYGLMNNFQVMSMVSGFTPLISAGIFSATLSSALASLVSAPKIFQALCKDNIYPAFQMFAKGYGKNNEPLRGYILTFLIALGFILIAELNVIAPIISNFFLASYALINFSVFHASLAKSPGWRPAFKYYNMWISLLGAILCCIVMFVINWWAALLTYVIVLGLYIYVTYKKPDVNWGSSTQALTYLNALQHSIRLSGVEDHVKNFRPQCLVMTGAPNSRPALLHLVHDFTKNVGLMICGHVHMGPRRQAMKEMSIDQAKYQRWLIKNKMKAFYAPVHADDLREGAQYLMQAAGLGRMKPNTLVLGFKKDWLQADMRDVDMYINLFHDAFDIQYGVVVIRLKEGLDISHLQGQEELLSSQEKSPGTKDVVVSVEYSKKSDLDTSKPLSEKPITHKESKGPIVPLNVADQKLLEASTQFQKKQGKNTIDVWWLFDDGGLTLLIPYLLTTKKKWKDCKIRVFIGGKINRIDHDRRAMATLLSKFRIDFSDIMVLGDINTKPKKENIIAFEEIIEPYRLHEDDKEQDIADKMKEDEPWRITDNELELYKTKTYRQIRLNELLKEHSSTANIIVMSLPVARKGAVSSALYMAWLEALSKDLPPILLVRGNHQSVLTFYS
As to the kind of experiment: proximity ligation; Duolink In Situ Orange, mouse anti-HA and rabbit anti-Sgcg; co-transfected RH30 cells pre-extracted with 0.1% Triton X-100 in CSK buffer for 4 min on ice before fixation.

In experiment [2] the target is T1, HA-CFP-tagged human NKCC1 (pcDNA3.1-HA-CFP-hNKCC1 WT (NT15-H)) (human). Briefly: co-IP; RH30 cells co-transfected with Flag-tagged Sgcg, Sgcb, Sgcd and an HA-CFP construct; modified RIPA1 (no SDS) extract; anti-HA on Protein A Dynabeads, 1 h at 4 °C; brief, low-stringency washes; blot for Sgcg-Flag.
For experiment [3] the target is unchanged. As to the kind of experiment: condition: only freeze-thaw of the cell lysates or stringent washes of the IP pellets; co-IP; RH30 cells co-transfected with Flag-tagged Sgcg, Sgcb, Sgcd and an HA-CFP construct; modified RIPA1 (no SDS) extract; anti-HA on Protein A Dynabeads, 1 h at 4 °C; brief, low-stringency washes; blot for Sgcg-Flag.

Results are given in words; binding and its absence hold for the method and conditions named. Binding seen in cells or lysates may run through a third protein. Some binding calls cover weakened binding; strength is not graded here. Where a sequence is shown, tags or fusion partners need not be part of it.

B1: Myc-DDK (Flag)-tagged murine γ-sarcoglycan (protein, UniProt P82348 1-291)
chain: MVREQYTTVTEGTHIERPENQHIYKIGIYGWRKRCLYLFVLLLLAILVVNLALTIWILKVMWFSPIGMGHLHVTADGLRLEGESEFLFPLYAKEIRSRVDSSLLLQSTQNVTVSARNSEGEVTGRVKVGAQMVEVQSQHFQINSEDGKPLFSAEEQDVVVGTGRLRVTGPEGALFEHSVETPLVRADPFQDLRLESPTRSLSMDAPRGVHVKANAGKLEALSQMDIILQSSEGVLVLDAETVGLTKLKQGTQGPAGSSNGFYEICACPDGKLYLSMAGEVTTCEEHSHVCL
As to B1, the figures for the binding result in experiment [1], in experiment [2] and in experiment [3] were “binds”, “binds weakly” and “no binding”, respectively.
